Usually inhibition stands for the relative decrease from the control value, in per cent.

Here are results for five molecules from article PMC7489219 (Molecular Brain, 2020).

Counter-ions that a name gives are not always drawn.

The assay relates to T1, primary mouse cortical neurons.
T1 construct: primary cortical neurons, DIV 10
Nature of the assay: cells. Further details: Protection from NMDA-induced (30 uM, 10 min) neuronal death; Hoechst nuclear morphology by automated microscopy. The conditions noted are these: Cortical neurone, 20 h, read-out: % inhibition, inhibition of NMDA-induced cell death (protection score), 30 min pre-treatment. The method, then:
On DIV 10, compounds were applied to the cells reaching an end concentration of 10 μM. Cells were incubated for 30 min at 37 °C, 5% CO2 before adding NMDA (30 μM). Cells were incubated for another 10 min in the incubator, then washed twice with defined minimal medium containing 10 μM of the respective compound and incubated for an additional 20 h before readout. Untreated (no NMDA) and NMDA-only stimulated wells were treated with 0.1% DMSO. […] After 15 min of incubation at room temperature, cells were washed twice with phosphate buffered saline. […] Dead neurons were identified by amorphous or shrunken nuclei using CellProfiler and CellProfiler Analyst software. For all cell death analyses the experimental unit (N) is defined as an independent experiment using an independent neuronal preparation. For each independent experiment, data from 3 replicate wells (i.e., from 36 images), representing an average of 3000 cells was analyzed per condition. The survival rate S was calculated by dividing the number of living cells by the total number of cells. The survival rate was then used to calculate the protection score according to Scompound−Svehicle/Suntreated−Svehicle×100=%protection , where ‘compound’ refers to compound + NMDA treatment, ‘vehicle’ refers to vehicle + NMDA treatment, and ‘untreated’ refers to DMSO control. […] As a proof of principle, we next used our assay to screen two commercially available drug libraries. In these screens, primary cortical cells were incubated with test compounds at 10 μM concentration for 30 min before addition of 30 μM NMDA. After 10 min NMDA treatment, cells were washed with fresh medium and kept in the presence of test compounds for 20 h until assessment of cell viability. […] This library covers structurally diverse drugs from several fields such as oncology, cardiology, immunology, and neurology/psychiatry.
Regarding `CN1[C@@H]2CCC[C@H]1C[C@@H](NC(=O)c1nn(C)c3ccccc13)C2` [Granisetron HCl], the inhibition at 10 µM is -7.66%.
For `O=C(CCCCCCC(=O)Nc1ccccc1)NO` [Vorinostat (SAHA)], the inhibition at 10 µM is 25.4%.
For `CN1C[C@@H]2c3ccccc3Oc3ccc(Cl)cc3[C@H]2C1` (racemic) [Asenapine], the inhibition at 10 µM is -16.8%.
In the case of `CNC(=O)c1ccccc1Sc1ccc2c(/C=C/c3ccccn3)n[nH]c2c1` [Axitinib] it was 21.7%; in that of `CC(C)OC(=O)C(C)(C)Oc1ccc(C(=O)c2ccc(Cl)cc2)cc1` [Fenofibrate (Tricor, Trilipix)], -1.71%.
